Values quoted from earlier work as cited in US9687498B1, “Composition for preventing or treating muscle wasting-related disease and use thereof” (Samsung Electronics Co., Ltd., priority 2015, dated 2017).
At least one compound was matched to its structure with a doubt left.

Test system: PGC-1 alpha 4 isoform
Conditions: stated as known; positive control; cited from earlier work

## C=C[C@@]1(C)CC(=O)[C@]2(O)[C@@]3(C)[C@@H](O)CCC(C)(C)[C@@H]3[C@H](O)[C@H](OC(C)=O)[C@@]2(C)O1 [Forskolin]
  expression of PGC-1 alpha 4 isoform (known effect): increase expression
